Measurements from “University of Dundee, Small-Polar-MMV Screening Library” (2021), ChEMBL document CHEMBL3988442.

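Whole-parasite assay of Trypanosoma brucei over 72 hours; the read-out is not stated. Compounds at 30 µM. The record gives no direction; compounds that gave an IC50 in retests scored well above the rest, so higher reads as stronger inhibition. Values scatter widely below zero; nearly all retest evidence comes from the higher of the two concentrations used. Of about 64,000 compounds tested this way, about 940 (1.5%) reached 50% or more in at least one test.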

Results are given as percent effect.
The record does not define 0% and 100%; most values in the screen are far below 50% and negative numbers occur (in some assays of this library far below -100).
The compounds are a random part of those screened.

Result for N#CCc1ccc(OCC(=O)N2CCCC(n3cccn3)C2)cc1 (stereo not drawn) was -0.321%.
Result for CCc1ccc(C(C)NC(=O)c2ccc(CS(C)(=O)=O)o2)cc1 (stereo not drawn) was 1.331%.
Result for CC(C)c1nc(N2CCC(N3CCSCC3)CC2)c2cnn(C)c2n1 was -13.85%.
Result for [H][C@]12CC[C@]([H])(CN(Cc3ccc4ccccc4n3)C1)N(CCOC)C2 was -15.71%.
Result for [H][C@]12CCN(C(=O)c3ccccc3)CC[C@@]1([H])S(=O)(=O)N(CC(=O)N(C)C)C2 was -52.15%.
Result for [H][C@@]12C[C@H](c3nnc(C)o3)CN(S(=O)(=O)N(C)C)[C@]1([H])CCO2 was -54.34%.
Result for CC(=O)N1CCC(N2CCOC[C@H]2c2nc(-c3ccccc3)c[nH]2)CC1 was -3.757%.
Result for CS(=O)(=O)c1cc(C(=O)NS(=O)(=O)Cc2ccc(F)cc2)ccc1Cl was -14.84%.
Result for COc1ccc(CN(C)CC(=O)NC2(C)CCS(=O)(=O)C2)cc1F (stereo not drawn) was -13.2%.
Result for CC1CCN(CCNC(=O)C2CCN(C(=O)C(C)(C)C)CC2)CC1 was -12.66%.
Result for CC(=O)N1CCCC1c1ccc(CN2CCOCC2)cn1 (stereo not drawn) was -20.46%.
Result for Cc1cc(C)n(CCCN(C)Cc2cn[nH]c2-c2ccc(F)cc2)n1 was -15.5%.
Result for COc1cc(CNc2nc(N3CCOCC3)ns2)cc(OC)c1OC was 30.06%.
Result for CCCC(=O)N(C)CC(=O)Nc1ccc(Br)cn1 was 12.22%.
Result for Cc1noc(CNc2cc3c(cc2Cl)OCCCO3)n1 was -32.18%.
Result for CCOc1cncc(N2CCOCC2)n1 was 9.304%.
Result for [H][C@@]12CS(=O)(=O)C[C@]1([H])NCCN2C(=O)COc1ccc(C)nc1 was 14.51%.
Result for O=C(CCOc1ccccc1F)N1CCCC(n2cncn2)C1 (stereo not drawn) was 0.8105%.
Result for OCc1cc2ccccc2nc1N1CCCC1 was 2.006%.
Result for CN(C)S(=O)(=O)Nc1ccc(Oc2ccc3c(c2)OCO3)cc1 was -22.05%.
Result for CCn1c(C(=O)N2CCN(C(=O)NC(C)C)CC2)cc2ccccc21 was -23.78%.
Result for O=C(NC[C@H]1COCc2nc3cc(F)ccc3n21)c1cccnc1 was -8.371%.
Result for CCc1nnnn1Cc1csc(N(C)C(C)=O)n1 was -15.31%.
Result for c1cncc(N2CCOC3(CCCN(c4nncs4)C3)C2)c1 (stereo not drawn) was -49.62%.
Result for CN(C)c1ccc(NC(=O)N2CCCCC2c2ncc[nH]2)cn1 (stereo not drawn) was -998.6%.
Result for O=C(c1c[nH]c(=O)[nH]1)N1CCCC2(CCC(=O)N(C3CCCC3)C2)C1 (stereo not drawn) was 5.983%.
Result for Cc1nccn1CCN(C)c1nc(-c2ccc(Cl)cc2)nc2c1CNC2 was -21.47%.
Result for Cc1ccccc1CNC(=O)Cn1ncc2c1c(C)nn2C was -7.192%.
Result for CCn1cc(CN2CCCC(COc3ccc(F)cc3)C2)cn1 (stereo not drawn) was -3.975%.
Result for O=C(N[C@@H]1CCC[C@@H](N2CCCC2)[C@@H]1O)c1cc2ccccc2[nH]1 was -172%.
Result for Cn1cnnc1SCc1cc2c(cc1Cl)OCO2 was -14.68%.
Result for COCCN(C)C[C@@H]1CN(C(=O)c2ccc(O)c(Cl)c2)C[C@@H]1CO was -19.27%.
Result for [H][C@@]12CCCO[C@]1([H])[C@H](NC(=O)CC1CC1)CN(C(=O)c1ccoc1C)C2 was -82.55%.
Result for CN1C(=O)COc2cc(NC(=O)CCc3nc4cccnc4[nH]3)ccc21 was -6.031%.
Result for Cc1nnc(NC(=O)NC2CCOc3ccccc32)s1 (stereo not drawn) was -41.45%.
Result for NC(=O)c1cnn2c1NCC(CNCCc1cccs1)C2 (stereo not drawn) was 6.719%.
Result for CC(C)N(CC(N)=O)C(=O)CCC(=O)c1ccc(F)cc1F was -50.97%.
Result for N#CCc1ccc(NC(=O)CNc2ccc(Br)cc2F)cc1 was 43.75%.
Result for O=C(c1ccccn1)N1Cc2ccccc2OC2(CCOCC2)C1 was -19.87%.
Result for Cc1ccc(CCCC(=O)N2CCC(CS(N)(=O)=O)CC2)s1 was -3.145%.
Result for CC(=O)NCC(=O)N1CCC2(COCc3c(C)nc(N(C)C)nc32)C1 (stereo not drawn) was -12.84%.
Result for COc1cccc([C@@H](C)n2ccnc2-c2cc3n(n2)CCNC3)c1 was -25.96%.
Result for C1CC(N2Cc3nnn(CC4CC4)c3C(COCC3CC3)C2)C1.O=C(O)C(F)(F)F (stereo not drawn) was -49.13%.
Result for CC(C)c1nccn1-c1cccc(C2CCN(C)CC2)n1 was -19.07%.
Result for NS(=O)(=O)c1ccc(N2CCN(CCCc3cn[nH]c3)CC2)cc1 was -13.92%.
Result for CCC(CNC(=O)c1nc(=O)[nH][nH]1)Oc1cccc(F)c1 (stereo not drawn) was 0.9804%.
Result for Cc1cn2c(n1)CCC(NS(=O)(=O)c1cc(C)sc1C)C2 (stereo not drawn) was -20.82%.
Result for Cc1nc(-c2cccc(N3CCC(N[C@@H]4CCOC4)CC3)c2)cs1 was 11.28%.
Result for COc1ccc(OCCN(C)c2cc(C)nc(N)n2)cc1 was -6.475%.
Result for Cc1nc(N2CCCC2)nc2c1CCN(C(=O)N1CCCC1)CC2 was -55.79%.
Result for Cc1nc(CNC(C)c2cccc(S(=O)(=O)N(C)C)c2)no1 (stereo not drawn) was -26.16%.
Result for Cc1cc(F)ccc1S(=O)(=O)N1CCN(C)Cc2ccccc21 was 3.195%.
Result for CC(C)c1cc(NC(CCO)c2ccccc2)n2nccc2n1 (stereo not drawn) was -60.37%.

The last 6 entries again:

Cc1nc(-c2cccc(N3CCC(N[C@@H]4CCOC4)CC3)c2)cs1 read 11.28%.
COc1ccc(OCCN(C)c2cc(C)nc(N)n2)cc1 read -6.475%.
Cc1nc(N2CCCC2)nc2c1CCN(C(=O)N1CCCC1)CC2 read -55.79%.
Cc1nc(CNC(C)c2cccc(S(=O)(=O)N(C)C)c2)no1 (stereo not drawn) read -26.16%.
Cc1cc(F)ccc1S(=O)(=O)N1CCN(C)Cc2ccccc21 read 3.195%.
CC(C)c1cc(NC(CCO)c2ccccc2)n2nccc2n1 (stereo not drawn) read -60.37%.